Among the data in PMC10830559 are binding values, retold here.

Chains of the proteins cited; added tags and fusions are not shown.
UniProt Q8IVF7: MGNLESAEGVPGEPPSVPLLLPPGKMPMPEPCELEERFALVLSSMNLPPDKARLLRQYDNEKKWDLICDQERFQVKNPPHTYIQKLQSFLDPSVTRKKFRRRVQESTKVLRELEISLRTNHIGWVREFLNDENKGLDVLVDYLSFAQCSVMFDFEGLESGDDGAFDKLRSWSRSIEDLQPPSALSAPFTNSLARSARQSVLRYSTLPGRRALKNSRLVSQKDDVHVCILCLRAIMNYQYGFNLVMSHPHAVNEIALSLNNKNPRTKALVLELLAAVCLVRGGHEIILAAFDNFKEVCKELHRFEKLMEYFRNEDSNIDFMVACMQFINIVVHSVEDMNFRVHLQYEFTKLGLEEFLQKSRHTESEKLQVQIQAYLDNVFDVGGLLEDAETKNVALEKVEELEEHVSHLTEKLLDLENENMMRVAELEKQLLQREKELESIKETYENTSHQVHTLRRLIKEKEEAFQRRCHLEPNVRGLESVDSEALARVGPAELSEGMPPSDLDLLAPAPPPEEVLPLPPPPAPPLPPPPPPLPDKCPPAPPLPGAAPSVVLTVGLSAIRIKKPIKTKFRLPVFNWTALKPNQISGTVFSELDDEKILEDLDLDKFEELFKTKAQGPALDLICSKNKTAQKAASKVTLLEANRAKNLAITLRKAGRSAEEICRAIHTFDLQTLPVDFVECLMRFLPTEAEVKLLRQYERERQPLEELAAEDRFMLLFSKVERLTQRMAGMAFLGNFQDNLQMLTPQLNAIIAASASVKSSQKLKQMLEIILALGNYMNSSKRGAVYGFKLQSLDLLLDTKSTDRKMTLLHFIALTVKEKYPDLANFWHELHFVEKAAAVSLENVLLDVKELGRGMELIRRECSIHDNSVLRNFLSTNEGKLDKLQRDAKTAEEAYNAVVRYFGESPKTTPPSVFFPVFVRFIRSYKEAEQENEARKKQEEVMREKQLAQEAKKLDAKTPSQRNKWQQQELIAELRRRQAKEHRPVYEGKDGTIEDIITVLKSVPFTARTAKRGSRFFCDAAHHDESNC

For this test, the target named is T1, HA-GFP BCAR3 K334A (UniProt O75815).
T1 sequence: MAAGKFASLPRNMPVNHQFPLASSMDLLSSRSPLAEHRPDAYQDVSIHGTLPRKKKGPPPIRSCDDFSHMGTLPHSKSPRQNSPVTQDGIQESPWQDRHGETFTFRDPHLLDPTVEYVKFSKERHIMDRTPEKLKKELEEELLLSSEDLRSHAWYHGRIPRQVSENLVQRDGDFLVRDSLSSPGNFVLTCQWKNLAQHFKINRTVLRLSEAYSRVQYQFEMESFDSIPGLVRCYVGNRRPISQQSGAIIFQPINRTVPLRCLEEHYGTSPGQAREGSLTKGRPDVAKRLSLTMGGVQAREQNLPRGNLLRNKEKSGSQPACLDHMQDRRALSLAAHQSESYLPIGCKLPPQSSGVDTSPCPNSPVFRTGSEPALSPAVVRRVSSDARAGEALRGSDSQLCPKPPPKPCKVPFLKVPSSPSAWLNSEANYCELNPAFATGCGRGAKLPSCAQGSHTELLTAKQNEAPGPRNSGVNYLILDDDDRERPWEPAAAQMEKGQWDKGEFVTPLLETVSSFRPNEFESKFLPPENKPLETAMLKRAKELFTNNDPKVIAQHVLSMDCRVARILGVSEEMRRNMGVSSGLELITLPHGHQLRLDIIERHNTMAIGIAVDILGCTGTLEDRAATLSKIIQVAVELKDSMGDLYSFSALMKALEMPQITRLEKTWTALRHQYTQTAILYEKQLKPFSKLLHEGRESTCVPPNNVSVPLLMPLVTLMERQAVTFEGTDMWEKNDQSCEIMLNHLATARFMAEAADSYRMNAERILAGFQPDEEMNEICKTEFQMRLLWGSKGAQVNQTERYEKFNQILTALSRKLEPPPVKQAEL
Put plainly: proximity ligation; Duolink PLA with HA (mouse) and FLAG (rabbit) antibodies on methanol-fixed engineered MDA-MB-231 cells; confocal spinning disk, dots per cell.

No constants are given. Whether binding was seen depends on the method and setting. In cells and extracts the contact can be indirect. Where a sequence is shown, tags or fusion partners need not be part of it.

Regarding Flag-FMNL3 (from UniProt Q8IVF7 1-1028), the binding result is reported as “no binding”.
